No constants are given. Whether binding was seen depends on the method and setting. A result given as binding can be weak or reduced; the word gives no strength. Sequences can lack the tags named with a protein. For part of these data: In cells and extracts the contact can be indirect.

Chains of the proteins cited; added tags and fusions are not shown. Lines headed by an entry give the natural chain unless they say otherwise; changes in a name come on top.
UniProt Q9SW23: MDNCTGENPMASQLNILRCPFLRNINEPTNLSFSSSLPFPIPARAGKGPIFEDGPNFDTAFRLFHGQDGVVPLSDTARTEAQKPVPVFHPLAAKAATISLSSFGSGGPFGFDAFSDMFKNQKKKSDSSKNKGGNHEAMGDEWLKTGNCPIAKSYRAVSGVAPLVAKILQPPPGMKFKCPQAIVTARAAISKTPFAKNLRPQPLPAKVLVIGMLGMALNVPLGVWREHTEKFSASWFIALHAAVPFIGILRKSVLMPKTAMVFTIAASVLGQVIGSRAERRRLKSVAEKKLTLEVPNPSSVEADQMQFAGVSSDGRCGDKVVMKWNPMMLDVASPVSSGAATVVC

Experiment [1] addresses T1, HopG1 fused to the GAL4 DNA-binding domain (pDEST32::HopG1) (Pseudomonas syringae pv. tomato DC3000) (UniProt Q87W42).
T1 sequence: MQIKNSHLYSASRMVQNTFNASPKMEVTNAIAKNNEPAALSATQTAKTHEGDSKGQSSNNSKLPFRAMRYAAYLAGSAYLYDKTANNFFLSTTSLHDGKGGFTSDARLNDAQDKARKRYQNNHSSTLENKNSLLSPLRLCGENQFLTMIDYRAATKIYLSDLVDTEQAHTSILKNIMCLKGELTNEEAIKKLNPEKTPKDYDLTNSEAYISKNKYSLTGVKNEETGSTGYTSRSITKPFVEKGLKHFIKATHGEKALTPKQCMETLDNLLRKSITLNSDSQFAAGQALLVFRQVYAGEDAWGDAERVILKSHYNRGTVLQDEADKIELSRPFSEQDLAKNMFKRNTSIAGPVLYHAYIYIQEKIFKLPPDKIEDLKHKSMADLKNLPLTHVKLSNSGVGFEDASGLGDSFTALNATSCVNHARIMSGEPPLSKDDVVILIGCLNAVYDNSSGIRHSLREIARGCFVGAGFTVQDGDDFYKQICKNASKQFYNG
The experiment can be described thus: two-hybrid; HopG1 as bait (pDEST32, GAL4 DNA-binding domain), AtNHR2B as prey (pDEST22, GAL4 activation domain); yeast MaV203; growth on TDO (SD/-His/-Leu/-Trp) + 15 mM 3-AT, 30 °C, 4 days.

The target of experiment [2] is AtNHR2B-GFP (Arabidopsis thaliana). In words: co-IP; co-expression in N. benthamiana leaves; 1 mg total protein extract with GFP Nanobody/VHH agarose beads (GFP-Trap), 3 h 30 min at 4 °C; washes with TBS 150 mM NaCl once and 500 mM NaCl twice; Western blot with anti-FLAG and anti-GFP. Background: In western blotting, separated proteins are transferred to a membrane and probed.

For experiment [3], the target named is AtNHR2B fused to the N-terminal encoding half of EYFP (nEYFP-AtNHR2B) (Arabidopsis thaliana). The experiment can be described thus: split reporter; BiFC with nEYFP and cEYFP halves, transient co-expression in N. benthamiana; laser scanning confocal microscopy, excitation 488 nm, emission 500-535 nm.

With “AtNHR2B fused to the GAL4 activation domain (pDEST22::AtNHR2B) (from UniProt Q9SW23)”, in experiment [1], the binding result is listed as “binds”.

B1: HopG1 fused to the FLAG epitope (HopG1-FLAG) (protein, UniProt Q87W42 1-493)
chain: MQIKNSHLYSASRMVQNTFNASPKMEVTNAIAKNNEPAALSATQTAKTHEGDSKGQSSNNSKLPFRAMRYAAYLAGSAYLYDKTANNFFLSTTSLHDGKGGFTSDARLNDAQDKARKRYQNNHSSTLENKNSLLSPLRLCGENQFLTMIDYRAATKIYLSDLVDTEQAHTSILKNIMCLKGELTNEEAIKKLNPEKTPKDYDLTNSEAYISKNKYSLTGVKNEETGSTGYTSRSITKPFVEKGLKHFIKATHGEKALTPKQCMETLDNLLRKSITLNSDSQFAAGQALLVFRQVYAGEDAWGDAERVILKSHYNRGTVLQDEADKIELSRPFSEQDLAKNMFKRNTSIAGPVLYHAYIYIQEKIFKLPPDKIEDLKHKSMADLKNLPLTHVKLSNSGVGFEDASGLGDSFTALNATSCVNHARIMSGEPPLSKDDVVILIGCLNAVYDNSSGIRHSLREIARGCFVGAGFTVQDGDDFYKQICKNASKQFYNG
B1: the binding result in experiment [2] is “binds”.

B2: HopG1 fused to the C-terminal encoding half of EYFP (HopG1-cEYFP) (protein, UniProt Q87W42 1-493)
chain: MQIKNSHLYSASRMVQNTFNASPKMEVTNAIAKNNEPAALSATQTAKTHEGDSKGQSSNNSKLPFRAMRYAAYLAGSAYLYDKTANNFFLSTTSLHDGKGGFTSDARLNDAQDKARKRYQNNHSSTLENKNSLLSPLRLCGENQFLTMIDYRAATKIYLSDLVDTEQAHTSILKNIMCLKGELTNEEAIKKLNPEKTPKDYDLTNSEAYISKNKYSLTGVKNEETGSTGYTSRSITKPFVEKGLKHFIKATHGEKALTPKQCMETLDNLLRKSITLNSDSQFAAGQALLVFRQVYAGEDAWGDAERVILKSHYNRGTVLQDEADKIELSRPFSEQDLAKNMFKRNTSIAGPVLYHAYIYIQEKIFKLPPDKIEDLKHKSMADLKNLPLTHVKLSNSGVGFEDASGLGDSFTALNATSCVNHARIMSGEPPLSKDDVVILIGCLNAVYDNSSGIRHSLREIARGCFVGAGFTVQDGDDFYKQICKNASKQFYNG
For the molecule B2, in experiment [3], the binding result is given as “binds”.

The values are drawn from PMC8967837.
